The text below walks through data of paper PMC9751883, “Discovery of new potent lysine specific histone demythelase-1 inhibitors (LSD-1) using structure based and ligand based molecular modelling and machine learning” (RSC Advances, 2022).

One data set deals with normal human dermal fibroblasts (HDF). Nature of the data set: cytotoxicity against normal human dermal fibroblasts. The data set is classed as cell-based.
Conditions: not given
The source says: However, testing against HDF is aimed at evaluating the selective cytotoxicities of hits.
As to `COc1cccc2c1C(=O)c1c(O)c3c(c(O)c1C2=O)CC(O)(C(C)=NNC(=O)CO)CC3OC1CC(N)C(O)C(C)O1` (stereo not drawn) [Cpd 298], the “HS (hill Slope) HDF” value turned out to be 0.88.
Still for that read-out and setting: under `N=C(N)c1ccc(OCCCCCCOc2ccc(C(=N)N)cc2I)cc1` [Cpd 304] stands 2.23.

The subject of the next data set is neuroblastoma SH-SY5Y cells. Nature of the data set: MTT cell viability assay on SH-SY5Y cells. Format: cell-based. Conditions: SH-SY5Y dose-response, in presence of verapamil (10 μM). The protocol:
The anticancer effects of captured hits were evaluated against SH-SY5Y (Neuroblastoma, CRL-2266), Panc-1 (pancreatic carcinoma, CRL-1469) and U-87 MG (glioblastoma, HTB-14) cells. Details about growth conditions, cell harvesting and counting are available in ESI Sections SM12–SM14. ^† The cancer killing profiles of tested compounds were evaluated colorimetrically using the Cell Titer Non-Radioactive Cell Proliferation Assay Kit® (Promega, USA) based on the reduction of a yellow tetrazole, 3-(4,5-Dimethylthiazol-2-yl)-2, 5-diphenyl tetrazolium bromide (MTT), to a purple formazan, a process that takes place in the mitochondria of viable cells (details are in ESI Sections SM12–SM14 ^†).[98,99]
As SH-SY5Y cells highly express ATP binding cassette subfamily B member 1 (ABCB1, MDR1, normalized expression, NX: 36.8%),[100] cell resistance were reversed using verapamil (10 μM), which was added with each hit, and incubated with cells for 72 hours for subsequent MTT viability assay.[101,102] Finally, MTT cell proliferation assay results were analysed using GraphPad Prism 8.0 (GraphPad Software, Inc). […] Measurements were repeated in triplicates.
• MTT Cell Proliferation Assay
Inhibitory effect of the hits on SH-SY5Y cells were evaluated by a colorimetric method of CellTiter Non-Radioactive Cell Proliferation Assay Kit® (Promega, USA), based on the reduction of a yellow tetrazole, 3-(4,5-Dimethylthiazol-2-yl)-2, 5-diphenyl tetrazolium bromide (MTT), to a purple formazan, a process that take place in the mitochondria of viable cells.
Briefly, the cells were seeded onto 96-well plates (Greiner, Germany) at a concentration of 2×10^4 cells/well and incubated for 24 hours through which cells are attached to the walls of the wells.
Subsequently, hits under concern were screened on 50 µM and 10 µM concentrations (100 μL/ well). Each concentration was added in triplicates, and every plate contained a control of cells in plain medium. The cells were then incubated at 37 °C for 72 hours. After incubation, the media were aspirated from the wells and replaced by fresh media (100 μL/ well), and 15 µl MTT dye solution. The plates were incubated at 37 °C for four hours, and then 50 μL of solublization/stop solution was added to each well. Optical density (OD) at 560 nm wavelength was recorded one hour later using a 96-well plate reader (GloMax, Promega).
• Reversal of SH-SY5Y resistance by verapamil
As SH-SY5Y cells are highly expressing ATP binding cassette subfamily B member 1 (ABCB1, MDR1) (Normalized expression, NX: 36.8%) 100, cell resistance were reversed using 10 µM concentration of verapamil added with each hit and incubated with cells for 72 hours for subsequent MTT viability assay 101,102.
(In general: Formazan colour is commonly taken as a measure of viable cells.)
Regarding `O=C(NCCCCCCCCCCNC(=O)Nc1cccc(C2=NCCN2)c1)Nc1cccc(C2=NCCN2)c1` [Hit 285], the “Hill Slope” value was 0.32.
On the same count and under the same terms, under `O=C(NCCCCCCCCCCNC(=O)Nc1cccc(C2=NCC(O)CN2)c1)Nc1cccc(C2=NCC(O)CN2)c1` (stereo not drawn) [Hit 286] stands 0.38; under `CCCCOCCCNCC(=O)Nc1ccc(S(=O)(=O)c2ccc(NC(=O)CNCCCOCCCC)cc2)cc1` [Hit 287], 0.64.
Still for that read-out and setting: under `N=C(N)c1ccc(OCCCCCCOc2ccc(C(=N)N)cc2)cc1` [Hit 288] stands 0.28.
On the same count and under the same terms, under `N=C(N)c1ccc(OCCCCCCOc2ccc(C(=N)N)cc2I)cc1` [Hit 304] stands 0.39.

Still in this data set, the particulars now being: SH-SY5Y dose-response, without verapamil.
`COc1cccc2c1C(=O)c1c(O)c3c(c(O)c1C2=O)C[C@@](O)(C(=O)CO)C[C@@H]3O[C@H]1C[C@H](N)[C@H](O)[C@H](C)O1` [Doxorubicin, reference compound]: the “Hill Slope” value came out at 1.09.
Still for that read-out and setting: under `COc1cccc2c1C(=O)c1c(O)c3c(c(O)c1C2=O)CC(O)(C(C)=NNC(=O)CO)CC3OC1CC(N)C(O)C(C)O1` (stereo not drawn) [Hit 298] stands 0.74.
